≈ marks a conversion by molar mass, not a printed value. The list shows a part of the results. These are further read-outs of the screen, such as a control signal, another cell line or another target. No call is given for them.

The nature of this assay: Mycobacterium tuberculosis H37Rv growth inhibition, confirmatory dose response, cytotoxicity (AID 1332).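 For CC50: Vero cells exposed to compounds for 72 hours.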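 For IC50: bacteria incubated 7 days before adding Alamar blue readout reagent.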 The settings on record: M. tuberculosis H37Rv growth inhibition; CC50: measured here: Vero cell cytotoxicity; IC50: measured here: IC50 H37Rv replicates.
The IC50 is the concentration that gives 50% inhibition. Compound `COc1cc(-c2ccc(=O)[nH]n2)ccc1OC(F)F` came in with an IC50 above 20 µg/mL. The same measure, in the same setting: the figure for `CCOC(=O)NNc1nncc2ccccc12` is above 20 µg/mL. The same measure, in the same setting: the result for `CCCCN1CCCCC1C(=O)Nc1c(C)cccc1C` (stereo not drawn) reads above 20 µg/mL. For the compound `CC(COc1ccccc1)NC(C)C(O)c1ccc(O)cc1` (stereo not drawn), the concentration for half-maximal inhibition (IC50) is above 20 µg/mL. As a reminder, the CC50 is the concentration at which the toxic effect on the cells reaches its halfway point. Compound `CC(C)(C)c1ccc(C(O)CCCN2CCC(C(O)(c3ccccc3)c3ccccc3)CC2)cc1` (stereo not drawn) showed a CC50 of 2.54 µg/mL (≈ 5.39 µM) and an IC50 of 1.33 µg/mL (≈ 2.82 µM). In turn, `CC(=O)[C@H]1CC[C@H]2[C@@H]3CC=C4C[C@@H](O)CC[C@]4(C)[C@H]3CC[C@]12C` displayed an IC50 above 20 µg/mL. Still for that read-out and setting: the result for `COc1ccc(CC2c3cc(OC)c(OC)cc3CC[N+]2(C)CCC(=O)OCCCCCOC(=O)CC[N+]2(C)CCc3cc(OC)c(OC)cc3C2Cc2ccc(OC)c(OC)c2)cc1OC` (stereo not drawn) reads above 20 µg/mL. `CN1CCC2=C[C@H](O)[C@H]3OC(=O)c4cc5c(cc4[C@H]3[C@@H]21)OCO5` registered a CC50 above 6 µg/mL and a half-inhibitory concentration (IC50) above 20 µg/mL. For `CN(C)CCCN1c2ccccc2Sc2ccc(Cl)cc21`, in that order: above 6 µg/mL and 5.23 µg/mL (≈ 16.4 µM). As to `Cc1cc(=O)n(-c2ccccc2)n1C`, the IC50 was above 20 µg/mL.

Take `Clc1ccc(COC(Cn2ccnc2)c2ccc(Cl)cc2Cl)c(Cl)c1` (stereo not drawn): the CC50 is above 6 µg/mL and the IC50 is 1.25 µg/mL (≈ 3.01 µM).

`C[C@@H]1CN(C2CCC(C#N)(c3ccc(F)cc3)CC2)CC[C@]1(C(=O)O)c1ccccc1` (stereo partly drawn) had an IC50 above 20 µg/mL. On the same count and under the same terms, the figure for `NC12CC3CC(CC(C3)C1)C2` is above 20 µg/mL.

As for `CN1CCN(C2=Nc3cc(Cl)ccc3Nc3ccccc32)CC1`, the IC50 is above 20 µg/mL. Compound `CO[C@@]1(NC(=O)CSCC#N)C(=O)N2C(C(=O)O)=C(CSc3nnnn3C)CS[C@@H]21` showed an IC50 above 20 µg/mL. On the same count and under the same terms, the figure for `C[C@@H]1[C@H](O)[C@@H](C)/C=C/C=C/C=C/C=C/C=C/C=C/C=C/[C@H](O[C@@H]2O[C@H](C)[C@@H](O)[C@H](N)[C@@H]2O)C[C@@H]2O[C@](O)(C[C@@H](O)C[C@@H](O)[C@H](O)CC[C@@H](O)C[C@@H](O)CC(=O)O[C@H]1C)C[C@H](O)[C@H]2C(=O)O` is above 20 µg/mL; for `CC(C)NC[C@H](O)COc1ccc(CC(N)=O)cc1` it is above 20 µg/mL; for `COc1ccc(OC)c(C(O)C(C)N)c1` (stereo not drawn) it is above 20 µg/mL. Consider `CCC(NC(C)C)C(O)c1ccc(O)c(O)c1` (stereo not drawn), for which the IC50 was above 20 µg/mL. As for `CCC(Cc1c(I)cc(I)c(N)c1I)C(=O)O` (stereo not drawn), the IC50 is above 20 µg/mL.

With `CN1CCc2cccc3c2[C@H]1Cc1ccc(O)c(O)c1-3`, the IC50 was above 20 µg/mL. `O=c1cc(-c2ccc(O)c(O)c2)oc2cc(O)cc(O)c12` registered a CC50 of 5.13 µg/mL (≈ 17.9 µM) and an IC50 above 20 µg/mL. As to `CCC(=O)O[C@H]1CC[C@H]2[C@@H]3CCC4=CC(=O)CC[C@]4(C)[C@H]3CC[C@]12C`, the IC50 is above 20 µg/mL.

Consider `CC(C)(C(=O)c1cccnc1)c1cccnc1`, for which the IC50 is above 20 µg/mL. The compound `CC(=O)N(O)CCCCCNC(=O)CCC(=O)N(O)CCCCCNC(=O)CCC(=O)N(O)CCCCCN` showed a CC50 of 4.57 µg/mL (≈ 8.16 µM) and an IC50 above 20 µg/mL. For `CC(=O)O[C@H]1C[C@@]2(C)[C@@H](C[C@@H](O)[C@H]3[C@@]4(C)CC[C@@H](O)[C@@H](C)C4CC[C@@]32C)/C1=C(\CCC=C(C)C)C(=O)O` (stereo partly drawn), the IC50 was determined as 0.161 µg/mL (≈ 0.312 µM). The same measure, in the same setting: the figure for `COc1cc(OC)c(C(=O)CCCN2CCCC2)c(OC)c1` is above 20 µg/mL; for `CCN1C(=O)NC(c2ccccc2)C1=O` (stereo not drawn) it is above 20 µg/mL. Same read-out and setting: the figure for `CN[C@H]1[C@@H](O)[C@H](O[C@H]2[C@@H](O)[C@@H](OC3OC(CN)=CCC3N)[C@H](N)C[C@@H]2N)OC[C@@]1(C)O` (stereo partly drawn) is above 20 µg/mL. Compound `COc1ccccc1N1CCN(CC(O)COc2cccc3ccccc23)CC1` (stereo not drawn) registered an IC50 above 20 µg/mL. Compound `CN1CCCC(CC2c3ccccc3Sc3ccccc32)C1` (stereo not drawn) showed a CC50 above 6 µg/mL and an IC50 of 5.64 µg/mL (≈ 18.2 µM).

Compound `CC[C@H](CC[C@@H](C)[C@H]1CC[C@H]2[C@@H]3CC=C4C[C@@H](O)CC[C@]4(C)[C@H]3CC[C@]12C)C(C)C` registered an IC50 above 20 µg/mL.

In the case of `CCCN(CCC)C(=O)C(CCC(=O)O)NC(=O)c1ccccc1` (stereo not drawn), the IC50 was above 20 µg/mL. For `COc1cc2c(cc1O)C[C@H]1c3c(cc(O)c(OC)c3-2)CCN1C`, the 50% inhibitory concentration (IC50) is above 20 µg/mL. The compound `C=C1C(=O)O[C@@H]2[C@H]3O[C@]3(C)CC/C=C(\C)CC[C@@H]12` gave a CC50 of 3.19 µg/mL (≈ 12.8 µM) and an IC50 of 0.944 µg/mL (≈ 3.8 µM). The compound `N[C@@H](Cn1ccc(=O)c(O)c1)C(=O)O` returned a half-inhibitory concentration (IC50) above 20 µg/mL. The compound `O=C(CCCN1CCC(n2c(=O)[nH]c3ccccc32)CC1)c1ccc(F)cc1` had an IC50 above 20 µg/mL.

For `CC(C)(Oc1ccc(Cl)cc1)C(=O)O`, the IC50 is above 20 µg/mL.

With `Cn1c(=O)c2[nH]cnc2n(C)c1=O`, the IC50 is above 20 µg/mL.

The compound `Cc1[nH]c(=O)c(C#N)cc1-c1ccncc1` yielded an IC50 above 20 µg/mL. On the same count and under the same terms, the figure for `OC(c1ccccc1)(c1ccccc1)C1CCNCC1` is above 20 µg/mL. Still for that read-out and setting: the result for `CN1C(C(=O)Nc2ccccn2)=C(O)c2sccc2S1(=O)=O` reads above 20 µg/mL. Still for that read-out and setting: the figure for `Cc1ncc([N+](=O)[O-])n1CC(O)CCl` (stereo not drawn) is above 20 µg/mL; for `C[C@]12CC[C@H]3C(=CCc4cc(O)ccc43)[C@@H]1CCC2=O` it is above 20 µg/mL; for `C/C=C/C(=O)N(CC)c1ccccc1C` it is above 20 µg/mL. For the compound `C=C[C@H]1CN2CC[C@H]1C[C@@H]2[C@@H](O)c1ccnc2ccc(OC)cc12`, the IC50 is above 20 µg/mL. Take `S=C(NC1CCCCC1)N1CCC(C2C=NC=N2)CC1` (stereo not drawn): the IC50 was above 20 µg/mL.

On to `C[N+]1(C)CCCC(OC(=O)C(O)(c2ccccc2)c2ccccc2)C1` (stereo not drawn), for which the concentration for half-maximal inhibition (IC50) was above 20 µg/mL. Same read-out and setting: the figure for `CO[C@@]1(NC(=O)Cc2cccs2)C(=O)N2C(C(=O)O)=C(COC(N)=O)CS[C@@H]21` is above 20 µg/mL; for `CN1C2CCC1CC(O)C2` (stereo not drawn) it is above 20 µg/mL.

The values above are taken from PubChem BioAssay AID1332 (Southern Research Institute, 2008).
